Experimental data as given in PubChem BioAssay AID1487 (National Center for Advancing Translational Sciences (NCATS), 2009).
The other results are listed elsewhere or left out. Further columns of the screen follow, without active or inactive calls. Compounds called inactive in the main read-out are mostly missing here. The note in brackets gives the kind of curve behind each potency; many fits are weak.

Assay: qHTS Assay for Modulators of Lamin A Splicing
Conditions: HeLa LMNA splicing GFP/RFP minigene ratio, 48 h
How it was run: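 S3 HeLa stable clones carrying a lamin A-EGFP splicing minigene plus DsRed2 were seeded at 600 cells/well in Opti-MEM with 2% FBS, pin-dosed and incubated 48 h at 37°C. Acumen cytometry (488 nm) gave the GFP/RFP total-intensity ratio.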

[1] = measured here: GFP splicing reporter channel
[2] = measured here: RFP viability control channel

Row | SMILES | AC50 [1] | AC50 [2]
1 | COc1cccc(Nc2ncc3nc(-c4cn(C)c5ccccc45)c(=O)n(CCC#N)c3n2)c1 | 2 µM [falling, full curve, poor fit] | 4.47 µM [falling, full curve]
2 | C[C@@]1(O)CCOC(=O)C1 | 14.1 µM [falling, single point] | 14.1 µM [falling, single point]
3 | O=C(Nc1cccc(Cl)c1)c1csc(-c2ccccc2)n1 | – | 20 µM [rising, single point]
4 | CC[n+]1c(/C=C/c2ccc(N(C)C)cc2)ccc2ccccc21 | 2.24 µM [rising, partial curve] | 1.41 µM [rising, full curve]
5 | Cc1cc(C2=NNC(=NC3CCCCC3)SC2)c(C)n1-c1c(C)n(C)n(-c2ccccc2)c1=O | – | 0.112 µM [falling, partial curve, poor fit]
6 | Cc1cc(S(=O)(=O)N(Cc2cccs2)Cc2ccccc2F)ccc1-n1cnnn1 | 22.4 µM [rising, single point] | 35.5 µM [rising, single point]
7 | CCc1cccc(NC(=O)Cc2cn(C)c3ccccc23)c1 | 12.6 µM [rising, single point] | 12.6 µM [rising, partial curve, poor fit]
8 | O=C(Cn1cc(C(F)(F)F)cc(Cl)c1=O)Nc1ccc(N2CCOCC2)cc1 | 11.2 µM [falling, partial curve] | 35.5 µM [falling, partial curve]
9 | CO[C@H]1[C@H](O[C@H]2O[C@@H](C)[C@@H](O[C@@H]3C[C@](C)(O)[C@H](O)[C@H](C)O3)[C@@H](N(C)C)[C@@H]2O)[C@@H](CC=O)C[C@@H](C)[C@@H](O[C@H]2CC[C@H](N(C)C)[C@H](C)O2)/C=C\C=C/C[C@@H](C)OC(=O)C[C@H]1O | 3.55 µM [rising, partial curve] | –
10 | COc1ccccc1NC(=O)c1c(NCc2ccc(OC)c(OC)c2OC)sc2c1CCCC2 | 14.1 µM [falling, partial curve] | –
11 | COc1ccc(NC(=O)c2cc3c(=O)n(Cc4ccco4)ccc3nc2C)cc1 | – | 14.1 µM [rising, single point]
12 | COC(=O)C1=C(C)N(C)C(=O)/C1=C\c1ccco1 | – | 0.141 µM [falling, full curve]
13 | CCN1CCN(CCCNC(=O)c2cnn(-c3ccccc3)c2C2CCN(C(=O)OC(C)(C)C)CC2)CC1 | 0.355 µM [falling, full curve, poor fit] | 0.282 µM [falling, full curve, poor fit]
14 | COc1ccc(CC(=O)Nc2cccc(-c3cn4ccccc4n3)c2)cc1 | – | 35.5 µM [rising, single point]
15 | CS(=O)(=O)N(CC(=O)N1CCCC1)Cc1ccccc1 | 2.24 µM [falling, partial curve, poor fit] | 35.5 µM [falling, single point]
16 | COc1ccc(C(=O)/C=C/c2ccc(OC3CSC3)cc2)cc1OC | 3.16 µM [falling, partial curve] | 10 µM [falling, partial curve]
17 | Cc1cc(C)c(S(=O)(=O)Nc2ccc3c(c2)CCC3)c(C)c1 | 35.5 µM [falling, single point] | 35.5 µM [falling, single point]
18 | Cc1nnc(SCC(=O)N(CC(C)C)c2c(N)n(CC(C)C)c(=O)[nH]c2=O)n1-c1ccccc1 | – | 0.501 µM [falling, full curve, poor fit]
19 | CN1CCN(c2cc3c(cc2F)c(=O)c(C(=O)O)cn3-c2ccc(F)cc2)CC1 | 0.398 µM [falling, full curve, poor fit] | 17.8 µM [rising, single point]
20 | COc1cccc(C2C=C(c3ccc(C)c(C)c3)Nc3nnnn32)c1OC (configuration not stated) | 8.91 µM [rising, partial curve, poor fit] | 11.2 µM [rising, partial curve, poor fit]
21 | COc1ccc2cc3cc(C(=O)Nc4ccc5c(c4)OCO5)oc3nc2c1 | 31.6 µM [falling, single point] | 35.5 µM [falling, single point]
22 | Cc1cccc2cc(C#N)c(SCC(=O)N3CC(=O)Nc4ccccc43)nc12 | 0.891 µM [falling, full curve] | 1.12 µM [falling, full curve]
23 | Cc1ccc(Nc2ccc(C(N)=O)cc2[N+](=O)[O-])cc1 | – | 4.47 µM [rising, partial curve, poor fit]

Exported in CSV form: 2 of the compounds above
Row,SMILES,AC50 [1],AC50 [2]
3,O=C(Nc1cccc(Cl)c1)c1csc(-c2ccccc2)n1,–,"20 µM [rising, single point]"
7,CCc1cccc(NC(=O)Cc2cn(C)c3ccccc23)c1,"12.6 µM [rising, single point]","12.6 µM [rising, partial curve, poor fit]"
